Test results taken from article PMC10293272.

Amino acid sequences for entries named in this document (tags omitted). A change or cut given only in a name is not applied to a line headed by its entry.
UniProt O95831: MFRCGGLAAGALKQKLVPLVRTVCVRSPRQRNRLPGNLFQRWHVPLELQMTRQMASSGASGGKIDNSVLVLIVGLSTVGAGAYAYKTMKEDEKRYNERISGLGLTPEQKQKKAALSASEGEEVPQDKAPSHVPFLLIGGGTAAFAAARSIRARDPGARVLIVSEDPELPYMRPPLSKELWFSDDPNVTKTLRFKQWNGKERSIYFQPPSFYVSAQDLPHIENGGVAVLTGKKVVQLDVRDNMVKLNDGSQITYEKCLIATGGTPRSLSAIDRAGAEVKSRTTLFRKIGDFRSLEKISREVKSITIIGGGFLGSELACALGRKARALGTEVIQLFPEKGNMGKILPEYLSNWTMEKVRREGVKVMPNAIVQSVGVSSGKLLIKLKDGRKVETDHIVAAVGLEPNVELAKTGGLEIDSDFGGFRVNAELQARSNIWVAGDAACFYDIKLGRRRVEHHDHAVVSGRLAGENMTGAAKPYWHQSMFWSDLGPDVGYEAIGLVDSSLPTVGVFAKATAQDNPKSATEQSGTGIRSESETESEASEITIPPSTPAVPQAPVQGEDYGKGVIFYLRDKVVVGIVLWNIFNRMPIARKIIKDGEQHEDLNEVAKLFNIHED

Experiments:
Experiment in all cases: co-IP; exogenous Co-IP: Flag-tagged AIF co-expressed with an HA-tagged partner (AIF, CHCHD4 or MIF) in AIF-null cells; Flag beads overnight at 4 °C, washed three times, SDS-PAGE
[1] = biological target: Flag-tagged AIF p.423-435del variant (human) (UniProt O95831)
[2] = biological target: Flag-tagged AIF p.R422Q variant (human) (UniProt O95831)
[3] = biological target: Flag-tagged wild-type apoptosis-inducing factor (AIF) (human) (UniProt O95831)

- binding [1]: binds
- binding [2]: binds
- binding [3]: binds
B1: HA-tagged coiled-coil-helix-coiled-coil-helix domain-containing protein 4 (CHCHD4) (protein, UniProt Q8N4Q1 1-142)
chain: MSYCRQEGKDRIIFVTKEDHETPSSAELVADDPNDPYEEHGLILPNGNINWNCPCLGGMASGPCGEQFKSAFSCFHYSTEEIKGSDCVDQFRAMQECMQKYPDLYPQEDEDEEEEREKKPAEQAEETAPIEATATKEEEGSS

No constants are given. Whether binding was seen depends on the method and setting. In cells and extracts the contact can be indirect. Binding calls can cover weak binding; strength is not graded here. Sequences can lack the tags named with a protein.
